Laboratory results published in patent publication US20170327509A1, “TWO-PHOTON ABSORBING FLUOROPHORES AND METHOD FOR CELLULAR IMAGING USING THE SAME” (POSTECH ACADEMY-INDUSTRY FOUNDATION, priority 2014, published 2017).
Some results were stated once for a whole list of compounds, not compound by compound.

Experiment: Fluorescence spectra / fluorescence intensities in solution
Type: physicochemical
Details: 1 μM in water (containing 1% DMSO); excitation at the maximum absorption wavelength; FIG. 40
Protocol: 10. […] 11. […] 12. […] 32. All fluorescence spectra were measured at the […] (FIG. 14). The fluorescence spectra were measured using a Photon Technical International Fluorescence System.
13(a). […] 13 (b, left) and FIG. 13 (b, right). Referring to FIGS. 9 and 13, it can be confirmed that fluorescence intensities of the two-photon absorbing fluorophores (particularly, Compounds 2 to 8) of the present invention in HEPES buffer (containing 1% DMSO, pH 7.4) and water (containing 1% DMSO) are higher than those of the conventional acedan (Compound 1).
In addition, to compare the fluorescence intensities of the compounds in aqueous solution according to a structural change, fluorescence intensities of Compounds 1, 5, and 13 to 18 at the concentration of 1 μM in water (containing 1% DMSO) were compared, and the results are shown in FIG. 40. The fluorescence intensities were measured through excitation of each compound at the maximum absorption wavelength. […] It can be confirmed that, as the degrees of hydrogen bonding of water molecule to the nitrogen atom in Compounds 13 to 17 are reduced, the fluorescence intensities increase.

SMILES	fluorescence intensities
CC(=O)c1ccc2cc(NC3CCCCC3)ccc2c1 [Compound 17]	higher than that of the conventional acedan (Compound 1)
CC(=O)c1ccc2cc(N[C@H]3CCCCC3NS(=O)(=O)c3ccccc3)ccc2c1 (stereo partly drawn) [Compound 15, N-((2S)-2-((6-acetylnaphthalen-2-yl)amino)cyclohexyl)benzenesulfonamide]	higher than that of the conventional acedan (Compound 1)
CC(=O)c1ccc2cc(NC3CCC(NS(=O)(=O)c4ccccc4)CC3)ccc2c1 [Compound 16, N-((1R,4R)-4-((6-acetylnaphthalen-2-yl)amino)cyclohexyl)benzenesulfonamide]	higher than that of the conventional acedan (Compound 1)
CC(=O)c1ccc2cc(NC3CCCCC3O)ccc2c1 [Compound 13, 1-6-(((1S,2S)-2-hydroxycyclohexyl)amino)naphthalen-2-yl)ethanone]	higher than that of the conventional acedan (Compound 1)
CC(=O)c1ccc2cc(N3CCCC3)ccc2c1 [Compound 18]	higher than that of the conventional acedan (Compound 1)
